{"source": "paper PMC8667902", "about": "(Journal of Enzyme Inhibition and Medicinal Chemistry, 2021)", "experiment": "PAMPA-BBB"}
{"smiles": "CN1C(=O)CN=C(c2ccccc2)c2cc(Cl)ccc21", "note": "[Diazepam]", "values": [{"measurement": "Papp", "value": "13.1 ± 0.79", "unit": "×10⁻⁶ cm/s"}]}
